Source: paper PMC6409740
No constants are given. Whether binding was seen depends on the method and setting. In cells and extracts the contact can be indirect. Some entries that bind do so weakly or less than the wild type. For part of these data: Tags and fused reporters may be left off the sequences shown. Each block holds one molecule with its values, some of them ahead of it.

By UniProt entry, the sequences of proteins in these tests, tags left out.
UniProt O80340: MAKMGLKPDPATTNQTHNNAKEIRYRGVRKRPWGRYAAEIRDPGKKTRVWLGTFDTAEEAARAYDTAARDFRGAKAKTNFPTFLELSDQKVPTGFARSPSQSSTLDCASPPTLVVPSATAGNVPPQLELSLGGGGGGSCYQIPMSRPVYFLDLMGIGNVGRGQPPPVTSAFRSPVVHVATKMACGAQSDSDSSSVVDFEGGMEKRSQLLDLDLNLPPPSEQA

Columns and labels:
[1] = target: ERF4-R fused to the N- or C-terminal part of eYFP (BiFC) (Arabidopsis thaliana) (UniProt O80340); assay: split reporter; BiFC-2in1-NN vector (N- and C-terminal part of eYFP at the N-termini of both partners, RFP as transformation control) in Arabidopsis Col-0 protoplasts, overnight; percentage of cells with eYFP signal by flow cytometry; also confocal microscopy
[2] = target: ETHYLENE RESPONSE FACTOR4 isoform ERF4-R, recombinant (GST-ERF4-R and 6xHIS-ERF4-R) (Arabidopsis thaliana) (UniProt O80340); assay: pull-down; 500 ug total protein of E. coli crude extracts mixed, 1 h at room temperature; 6xHIS-tagged protein held on HIS-select nickel magnetic agarose beads (wash: 50 mM NaH2PO4, 300 mM NaCl, 10 mM imidazole; elution with 300 mM imidazole); GST-tagged protein detected in the eluate by anti-GST Western blot
[3] = target: WRKY53 fused to the N- or C-terminal part of eYFP (BiFC) (Arabidopsis thaliana) (UniProt Q9SUP6); assay: split reporter; BiFC-2in1-NN vector (N- and C-terminal part of eYFP at the N-termini of both partners, RFP as transformation control) in Arabidopsis Col-0 protoplasts, overnight; percentage of cells with eYFP signal by flow cytometry; also confocal microscopy

- binding [1]: binds
Molecule: ERF4-R fused to the N- or C-terminal part of eYFP (BiFC) (from UniProt O80340 1-222)

- binding [2]: binds
Molecule: ETHYLENE RESPONSE FACTOR4 isoform ERF4-R, recombinant (GST-ERF4-R and 6xHIS-ERF4-R) (from UniProt O80340 1-222)

- binding [3]: binds
B1: WRKY53 fused to the N- or C-terminal part of eYFP (BiFC) (protein, UniProt Q9SUP6 1-324)
chain: MEGRDMLSWEQKTLLSELINGFDAAKKLQARLREAPSPSSSFSSPATAVAETNEILVKQIVSSYERSLLLLNWSSSPSVQLIPTPVTVVPVANPGSVPESPASINGSPRSEEFADGGGSSESHHRQDYIFNSKKRKMLPKWSEKVRISPERGLEGPQDDVFSWRKYGQKDILGAKFPRSYYRCTHRSTQNCWATKQVQRSDGDATVFEVTYRGTHTCSQAITRTPPLASPEKRQDTRVKPAITQKPKDILESLKSNLTVRTDGLDDGKDVFSFPDTPPFYNYGTINGEFGHVESSPIFDVVDWFNPTVEIDTTFPAFLHESIYY
